# Results as given in the supplement of paper PMC11732987, “Enantioselective OTUD7B fragment discovery through chemoproteomics screening and high-throughput optimisation” (Communications Chemistry, 2025).
# This is one part of the list. The data scatter; read single values as rough.
# Experiments:
# [1] = compound: ClCC(=O)N[C@@H]1CCCc2ccccc12; assay: log2 mean competition ratio of IA-DTB cysteine labelling (DMSO/compound) (log2 ratio); higher = stronger cysteine engagement by compound; conditions: treatment time: 4 h, cell line lysate: HEK293T
# Protocol: (§1)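 IA-DTB competitive cysteine chemoproteomics in HEK293T RIPA lysate. Lysates were treated with compound 29 or 30 at 50 or 200 µM for 4 h, then IA-DTB (500 µM, 1 h), trypsin-digested, NeutrAvidin-enriched and analysed by diaPASEF. Competition ratio = intensity DMSO / intensity compound (n=4 treated, n=64 DMSO); binding: mean log2 CR ≥ 1 and p ≤ 0.05 plus QC filters. Target is the cysteine site.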
# [2] = compound: ClCC(=O)N[C@H]1CCCc2ccccc12; assay: as above; conditions: treatment time: 4 h, cell line lysate: HEK293T
# Protocol: as §1
Target,log2 mean competition ratio ([1]; 50 µM),log2 mean competition ratio ([1]; 200 µM),log2 mean competition ratio ([2]; 50 µM),log2 mean competition ratio ([2]; 200 µM)
RALGAPA1 C1712 (UniProt Q6GYQ0),0.767,-0.425,0.748,-0.369
RBM33 C285 (UniProt Q96EV2),0.126,-0.656,0.188,-0.509
RBBP7 C166,-0.0957,0.152,-0.288,-0.0621
RDH14 C306 (UniProt Q9HBH5),0.164,0.0354,-0.368,-0.136
RGP1 C101 (UniProt Q92546),0.246,-0.0472,0.207,-0.0297
RCC1L C181 (UniProt Q96I51),0.155,-0.0888,0.279,-0.0314
RC3H2 C771 (UniProt Q9HBD1),0.115,0.323,0.223,0.274
RICTOR C68 (UniProt Q6R327),-0.166,-0.0731,-0.583,0.0834
RAE1 C106 (UniProt P78406),-0.0694,-0.145,0.305,-0.147
RLF C1049 (UniProt Q13129),0.0649,0.18,-0.151,-0.219
RBL1 C918 (UniProt P28749),-0.289,0.18,-0.449,-0.102
RLF C227 (UniProt Q13129),0.164,0.164,0.429,0.0825
RIPOR1 C289 (UniProt Q6ZS17),0.156,-0.104,0.0865,-0.126
RDH13 C201 (UniProt Q8NBN7),-0.114,-0.118,-0.0476,-0.19
RASA1 C576 (UniProt P20936),0.302,0.0282,0.276,0.000802
RING1 C398 (UniProt Q06587),0.208,0.12,-0.244,0.0653
RALGAPA1 C293 (UniProt Q6GYQ0),-0.2,0.053,-0.0073,0.136
RAP1GAP C83 (UniProt P47736),-0.0364,0.034,-0.0227,0.198
RHOC C16 (UniProt P08134),-0.00802,-0.226,0.546,-0.0122
RBM12B C919 (UniProt Q8IXT5),-0.045,0.0608,-0.0424,0.138
RIF1 C2450 (UniProt Q5UIP0),0.277,-0.447,0.6,-0.152
RALGAPA2 C495 (UniProt Q2PPJ7),-0.121,-0.178,-0.386,-0.437

Target,log2 mean competition ratio ([1]; 50 µM),log2 mean competition ratio ([1]; 200 µM),log2 mean competition ratio ([2]; 50 µM),log2 mean competition ratio ([2]; 200 µM)
RB1 C61 (UniProt P06400),-0.374,-0.0144,0.00854,0.0206
RELCH C624 (UniProt Q9P260),0.15,-0.217,0.132,-0.166
RAP1GAP2 C584 (UniProt Q684P5),-0.123,-0.176,0.315,0.0957
RFC2 C171 (UniProt P35250),0.00901,-0.051,0.00374,0.0412
RCCD1 C139 (UniProt A6NED2),-0.0136,0.617,0.124,1.45
RB1CC1 C572 (UniProt Q8TDY2),-0.0187,0.156,-0.311,0.147
RECQL5 C246 (UniProt O94762),-0.0615,0.121,0.102,-0.028
RIF1 C880 (UniProt Q5UIP0),0.129,0.125,0.382,0.0209
RERE C41 (UniProt Q9P2R6),-0.139,-0.141,-0.0815,0.219
RB1CC1 C831 (UniProt Q8TDY2),0.0239,0.0615,-0.499,0.0899
RDH13 C30 (UniProt Q8NBN7),0.00102,-0.173,0.185,-0.174
RICTOR C1576 (UniProt Q6R327),-0.231,-0.173,-0.0759,0.017
RLF C1494 (UniProt Q13129),0.128,-0.434,0.142,0.0774
RANBP2 C141 (UniProt P49792),0.0727,-0.0993,-0.386,0.0795
RMND5A C25 (UniProt Q9H871),0.436,0.0424,-0.0183,0.0516
RAP1GAP2 C617 (UniProt Q684P5),0.114,-0.416,-0.00239,-0.202
RALBP1 C291 (UniProt Q15311),-0.0624,0.138,-0.0374,0.274
RFLNB C186 (UniProt Q8N5W9),0.662,0.383,0.492,0.221
RB1CC1 C81 (UniProt Q8TDY2),-0.0862,-0.0907,-0.174,0.246
RASSF1 C341 (UniProt Q9NS23),0.249,-0.136,0.175,-0.0277
RANBP3 C116 (UniProt Q9H6Z4),-0.112,-0.157,-0.113,-0.201

# Given bar-delimited: entries from further up
Target | log2 mean competition ratio ([1]; 50 µM) | log2 mean competition ratio ([1]; 200 µM) | log2 mean competition ratio ([2]; 50 µM) | log2 mean competition ratio ([2]; 200 µM)
RELCH C624 (UniProt Q9P260) | 0.15 | -0.217 | 0.132 | -0.166
RAP1GAP2 C584 (UniProt Q684P5) | -0.123 | -0.176 | 0.315 | 0.0957
RCCD1 C139 (UniProt A6NED2) | -0.0136 | 0.617 | 0.124 | 1.45
RB1CC1 C572 (UniProt Q8TDY2) | -0.0187 | 0.156 | -0.311 | 0.147
RIF1 C880 (UniProt Q5UIP0) | 0.129 | 0.125 | 0.382 | 0.0209
RERE C41 (UniProt Q9P2R6) | -0.139 | -0.141 | -0.0815 | 0.219
RB1CC1 C831 (UniProt Q8TDY2) | 0.0239 | 0.0615 | -0.499 | 0.0899
RDH13 C30 (UniProt Q8NBN7) | 0.00102 | -0.173 | 0.185 | -0.174
RICTOR C1576 (UniProt Q6R327) | -0.231 | -0.173 | -0.0759 | 0.017
RLF C1494 (UniProt Q13129) | 0.128 | -0.434 | 0.142 | 0.0774
RANBP2 C141 (UniProt P49792) | 0.0727 | -0.0993 | -0.386 | 0.0795
RALBP1 C291 (UniProt Q15311) | -0.0624 | 0.138 | -0.0374 | 0.274
RASSF1 C341 (UniProt Q9NS23) | 0.249 | -0.136 | 0.175 | -0.0277
